# This is one part of the list. The main result of the screen is listed elsewhere. These columns were measured beside it and carry no call. Most of these compounds were active or inconclusive in the main read-out, so they are no random draw. The note in brackets gives the kind of curve behind each potency; many fits are weak. Square brackets hold non-standard residues; d marks the D form. Peptide text beside a SMILES is read from it. * marks the point of attachment. ξ: configuration not given here. Cbz = O=C(OCc1ccccc1)*; ξA = CC(N)C(=O)O
# Test: qHTS Assay to Find Inhibitors of Chronic Active B-Cell Receptor Signaling
# Details: ABC-DLBCL IkBa-CBG/CBR reporter, luminescence ratio (green luciferase fused to IkBa over red control in TMD8 lymphoma cells), 4 h
# In short: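 Compounds up to 46 uM were incubated four hours with TMD8 cells whose green CBG68 luciferase is fused to IkappaBalpha; red CBR luminescence normalised the signal, and concentration-effect curves were fitted to fusion, red and ratio data.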
# [1] = measured here: CBR red luminescence, cell number
# [2] = measured here: IkBa-CBG green luminescence
Compound,AC50 [1],AC50 [2]
Cc1c(C(=O)OCC(=O)Nc2cccc(S(N)(=O)=O)c2)oc2c1ccc1ccccc12,"35.5 µM [falling, single point]",–
CCOC(=O)c1c(C)oc2ccc(NS(=O)(=O)c3cccs3)cc12,"23.1 µM [falling, single point]",–
CCN1CCN(c2ccc(S(=O)(=O)N3CCCCC3)cc2NC(=O)COc2cc(C)ccc2Cl)CC1,"29.1 µM [falling, single point]",–
NNC(=S)Nc1ccc(OC(F)(F)F)cc1,"5.01 µM [rising, full curve, poor fit]",–
Cc1ccc(-n2cc(CNCCCn3ccnc3C)c(-c3ccc(F)cc3)n2)cc1,"35.5 µM [falling, single point]",–
CC(=O)Nc1ccc(C(=O)CN2C(=O)CSC2=O)cc1,"12.6 µM [rising, partial curve, poor fit]",–
Cc1ccc(C)c(NC(=S)NCCSc2ccc(Cl)cc2)c1,"9.2 µM [rising, partial curve, poor fit]",–
CCOC(=O)C1(Cc2cccc(Cl)c2)CCCN(C2CCN(C(C)=O)CC2)C1 (stereo unspecified),"11.2 µM [falling, partial curve, poor fit]",–
NC(=O)N/N=C\c1cccs1,"35.5 µM [rising, single point]",–
COc1cccc(C2=CC(c3ccccc3F)n3ncc(C(=O)Nc4ccc(C)cc4)c3N2)c1 (stereo unspecified),"35.5 µM [falling, single point]",–
O=C1CCCCC1Sc1nnc(-c2ccc3c(c2)OCO3)o1 (stereo unspecified),"6.31 µM [falling, partial curve]",–
Cc1cc(C(=O)OCC(=O)N2CC(C)OC(C)C2)c(C)n1-c1ccccc1 (stereo unspecified),"23.1 µM [falling, single point]",–
CCOC(=O)c1cc(-c2ccccc2)nc2nc(N3CCCCC3)sc12,"0.291 µM [rising, full curve, poor fit]",–
O=C(CCCN1C(=O)/C(=C/c2ccccc2Cl)SC1=S)NNC(=O)c1ccc(Cl)cc1Cl,"0.891 µM [falling, full curve, poor fit]",–
Cc1ccccc1NC(=O)COc1ccc2c(c1)OC(C)(C)CC2=O,"11.2 µM [falling, partial curve, poor fit]",–
Nc1[nH]n2c(=O)cc(-c3ccccc3)nc2c1N=Nc1ccccc1,"4.47 µM [falling, full curve, poor fit]",–
COc1ccc(S(=O)(=O)N(CC(=O)N2CCOCC2)c2cc(Cl)ccc2OC)cc1OC,"35.5 µM [rising, single point]",–
COc1cc(C(=O)N/N=C/c2ccc3c(c2)c2ccccc2n3C)ccc1O,"6.31 µM [falling, full curve]",–
COC(=O)CNC(=O)C(C)NC(=O)CNC(=O)OCc1ccccc1 (stereo not drawn) (Cbz-Gly-[ξA]-Gly-OMe),"11.2 µM [rising, partial curve, poor fit]",–
O=C(Nc1ccc(Cl)cc1)Nc1ccccc1Sc1ncc([N+](=O)[O-])s1,"6.31 µM [falling, partial curve]",–
CCCC(=O)N1N=C(c2ccccc2)CC1c1cn(C)c2ccccc12 (stereo unspecified),"23.1 µM [falling, single point]",–

# In a second layout: results already given
Compound	AC50 [1]	AC50 [2]
CCOC(=O)c1c(C)oc2ccc(NS(=O)(=O)c3cccs3)cc12	23.1 µM [falling, single point]	–
CCN1CCN(c2ccc(S(=O)(=O)N3CCCCC3)cc2NC(=O)COc2cc(C)ccc2Cl)CC1	29.1 µM [falling, single point]	–
NNC(=S)Nc1ccc(OC(F)(F)F)cc1	5.01 µM [rising, full curve, poor fit]	–
Cc1ccc(-n2cc(CNCCCn3ccnc3C)c(-c3ccc(F)cc3)n2)cc1	35.5 µM [falling, single point]	–
CC(=O)Nc1ccc(C(=O)CN2C(=O)CSC2=O)cc1	12.6 µM [rising, partial curve, poor fit]	–
Cc1ccc(C)c(NC(=S)NCCSc2ccc(Cl)cc2)c1	9.2 µM [rising, partial curve, poor fit]	–
CCOC(=O)C1(Cc2cccc(Cl)c2)CCCN(C2CCN(C(C)=O)CC2)C1 (stereo unspecified)	11.2 µM [falling, partial curve, poor fit]	–
NC(=O)N/N=C\c1cccs1	35.5 µM [rising, single point]	–
COc1cccc(C2=CC(c3ccccc3F)n3ncc(C(=O)Nc4ccc(C)cc4)c3N2)c1 (stereo unspecified)	35.5 µM [falling, single point]	–
O=C1CCCCC1Sc1nnc(-c2ccc3c(c2)OCO3)o1 (stereo unspecified)	6.31 µM [falling, partial curve]	–
Cc1cc(C(=O)OCC(=O)N2CC(C)OC(C)C2)c(C)n1-c1ccccc1 (stereo unspecified)	23.1 µM [falling, single point]	–
CCOC(=O)c1cc(-c2ccccc2)nc2nc(N3CCCCC3)sc12	0.291 µM [rising, full curve, poor fit]	–
O=C(CCCN1C(=O)/C(=C/c2ccccc2Cl)SC1=S)NNC(=O)c1ccc(Cl)cc1Cl	0.891 µM [falling, full curve, poor fit]	–
Cc1ccccc1NC(=O)COc1ccc2c(c1)OC(C)(C)CC2=O	11.2 µM [falling, partial curve, poor fit]	–
Nc1[nH]n2c(=O)cc(-c3ccccc3)nc2c1N=Nc1ccccc1	4.47 µM [falling, full curve, poor fit]	–
COc1ccc(S(=O)(=O)N(CC(=O)N2CCOCC2)c2cc(Cl)ccc2OC)cc1OC	35.5 µM [rising, single point]	–
COc1cc(C(=O)N/N=C/c2ccc3c(c2)c2ccccc2n3C)ccc1O	6.31 µM [falling, full curve]	–

# Remaining list, next part.

Compound,AC50 [1],AC50 [2]
CCOC(=O)CC1C(C(=O)OCC)ON2OC(C(=O)OC)C(C(=O)OCC)C12 (stereo unspecified),"0.092 µM [rising, full curve, poor fit]",–
O=C(CSc1nnnn1C1CCCCC1)Nc1ccc2c(c1)OCO2,"6.51 µM [falling, single point]",–
CCOc1ccc(NC(=O)CC2C(=O)N(c3ccccc3)C(=O)N2CCc2cccs2)cc1 (stereo unspecified),"0.58 µM [rising, full curve, poor fit]",–
COc1ccc(OCC(=O)NNC(=O)C2CCN(c3ncnc4sc(C)c(C)c34)CC2)cc1,"4.61 µM [falling, single point]",–
c1ccc(CNc2nc3ccccc3n3cnnc23)cc1,"6.51 µM [rising, full curve, poor fit]",–
Cc1cccc(NC(=O)c2ccccc2O)c1C,"35.5 µM [falling, single point]",–
CCN(CC)CCn1c(=O)n(-c2ccc(Cl)cc2)c(=O)c2c3c(sc21)CN(C)CC3,"0.891 µM [rising, full curve]",–
Clc1ccc(/C=N/N2CCCCC2)cc1,"12.6 µM [rising, partial curve, poor fit]",–
Cn1c(N)c(C(=O)CSc2nnc(C3CC3)n2-c2ccccc2)c(=O)n(C)c1=O,"1.46 µM [falling, full curve]",–
CCC(OC(=O)C(C)N1C(=O)C(=O)c2ccccc21)C(=O)Nc1ccccc1OC (stereo unspecified),"4.47 µM [rising, partial curve, poor fit]",–
O=C(Nc1ccc(Cl)cc1)Nc1nnc(Cc2ccc([N+](=O)[O-])cc2)s1,"29.1 µM [rising, single point]",–
COc1cc2c(cc1OC)[C@@H](NC(=O)COc1ccccc1)[C@H](OCc1ccccc1)C2,"10.3 µM [rising, partial curve, poor fit]","0.517 µM [falling, partial curve, poor fit]"
Cc1nc2ccc(NC(=O)c3cnc(Cl)c(Cl)c3)cc2s1,"7.94 µM [falling, partial curve, poor fit]",–
Cc1ccc(C(=O)OCC(=O)N2CCCCCC2)c(O)c1,"1.46 µM [rising, full curve]",–
O=C(c1ccc(-c2ccccc2Cl)o1)N1CCCC(C(F)(F)F)C1 (stereo unspecified),"32.6 µM [falling, single point]",–
Cn1c(=N)n(CC(=O)C(C)(C)C)c2ccccc21,"13 µM [rising, partial curve, poor fit]",–
Cn1cccc1C(C#N)c1ncc(C(F)(F)F)cc1Cl (stereo unspecified),"14.1 µM [falling, partial curve, poor fit]",–
Cc1[nH]c2ccccc2c1C(=O)C(=O)NCCOc1ccccc1,"15.8 µM [rising, single point]",–
O=C(NCc1ccccc1)c1ccc(-c2ccccc2F)o1,"14.6 µM [rising, single point]",–
COc1ccc(Cl)cc1NC(=O)NN1CCN(C)CC1,"35.5 µM [falling, single point]",–
Cn1c(=O)c([N+](=O)[O-])c(Cl)c2ccccc21,"5.62 µM [rising, single point]","5.62 µM [falling, single point]"

Compound,AC50 [1],AC50 [2]
CNC(=O)/C(C#N)=C/c1ccc(OCCOc2ccccc2)cc1,"12.6 µM [rising, partial curve, poor fit]",–
COc1ccccc1NC(=O)CN1CCN(CC(=O)Nc2ccc(F)cc2F)CC1,"20 µM [falling, partial curve, poor fit]",–
COc1cc(C2CC(=O)N3CN(Cc4ccco4)CSC3=C2C#N)ccc1OCc1ccccc1 (stereo unspecified),"17.8 µM [falling, single point]",–
Cc1ccc(N2CC(C(=O)Nc3nc4ccc(S(C)(=O)=O)cc4s3)CC2=O)cc1 (stereo unspecified),"7.08 µM [falling, full curve, poor fit]",–
COc1cccc(C(=O)NCC2(c3ccccc3)CCCC2)c1,"35.5 µM [falling, single point]",–
CCN(Cc1ccccc1)Cc1ccc(OCc2ccccc2)cc1,"17.8 µM [rising, partial curve, poor fit]",–
CCn1ccnc1CN(C)Cc1nc(-c2ccc3c(c2)OCO3)no1,"3.98 µM [rising, full curve]",–
O=C1C(c2ccccc2)=[N+]([O-])c2ccccc21,–,"18.4 µM [falling, single point]"
COc1cccc(C2=NOC(C(=O)NCc3ccc(F)cc3)C2)c1 (stereo unspecified),"11.2 µM [rising, partial curve]","12.6 µM [falling, single point]"
O=C(c1c(F)cccc1F)N1CCC(O)(c2cccnc2)CC1,"0.731 µM [rising, partial curve, poor fit]",–
O=C(c1c(F)cccc1F)N1CCN(c2ncc(Br)cn2)CC1,"11.2 µM [rising, partial curve, poor fit]",–
CC1=NN(c2ccc(Cl)c(C(=O)O)c2)C(=O)/C1=C\c1ccc(-c2ccc(C(=O)O)cc2)o1,"6.31 µM [falling, full curve, poor fit]",–
Cc1ccc(-c2noc(-c3ccoc3C)n2)cc1,"0.501 µM [falling, partial curve, poor fit]",–
N#C/C(=C/c1ccccc1[N+](=O)[O-])C(=O)NCc1ccco1,"20.6 µM [falling, partial curve, poor fit]",–
CC(C)Nc1nc(Cl)nc(Nc2ccccc2)n1,"3.98 µM [falling, partial curve, poor fit]",–
COc1cccc(/C=N\NC(=O)c2sc(N)nc2C)c1OC,"8.2 µM [falling, partial curve, poor fit]",–
O=C(NNC(=O)c1ccc(Oc2ccc(C3SCCS3)cc2)o1)c1ccc(Cl)cc1,"6.31 µM [falling, full curve]",–
Cc1ccc2nc(C)/c(=N\O)c(C)nc2c1,"0.398 µM [rising, full curve, poor fit]",–
Clc1ccc(OCCSc2ncccn2)c2ccccc12,"2 µM [rising, full curve, poor fit]",–
COC(=O)c1ccccc1NC(=O)/C=C/c1ccco1,"9.2 µM [falling, partial curve]",–
Cc1cc(NC(=O)CCC(=O)N(c2ccccc2)C(C(=O)NC2CCCC2)c2ccccc2C)no1 (stereo unspecified),"35.5 µM [rising, single point]",–
